# Reference: PubChem BioAssay AID248 (DTP/NCI, 2004)
# The list shows only some results of the screen, not a fair sample: its compounds were picked by chemical class. Other doses and runs of a compound may be missing. T/C: endpoint of the treated group in % of that of the vehicle group. Some doses have a count of surviving animals in place of a T/C: the source holds a T/C of zero for them, seemingly a mark for toxic or unscored doses. Some doses without a T/C left all or most animals alive at the check, yet need not have been tolerated: the source hardly ever lists a survival T/C far under the control, and the zero likely stands for such cases as well. Survivors were counted at the toxicity check, usually on the fifth day, unless a day is given; later deaths do not show. Schedule codes are those of the source, read here as Q, the interval in days (D) or hours (H), X, the number of doses. Some schedules carry Z or #; the key to these is not given. For survival time, the PubChem record calls one and a half times the control and up active, and a quarter to a half above the control has no call in these data; cut-offs in other NCI protocols can differ. Some entries hold several experiments; the values are given in rising order. Some T/C values are followed by the survivors on the day toxicity was checked, most often the fifth; where neither a count nor a note follows, no animal had died by that day.
# Test system: L1210 leukemia ip in BDF1 mice, survival T/C
# Assay: NCI In Vivo Anticancer Drug Screen. Data for tumor model L1210 Leukemia (intraperitoneal) in B6D2F1 (BDF1) mice
# Conditions: T/C endpoint: mean survival time, higher T/C = longer survival
structure (smiles),measurement,setting,value
O[C@H](CNCCBr)[C@@H](O)CNCCBr,T/C,"dose: 0.09 mg/kg/injection, schedule: Q01DX Z (ip), vehicle: methylcellulose (MC)",127 % of control
same,T/C,"dose: 0.1 mg/kg/injection, schedule: Q01DX Z (oral), vehicle: saline",106 % of control
same,T/C,"dose: 0.13 mg/kg/injection, schedule: Q01DX Z (ip), vehicle: methylcellulose (MC)",143 % of control
same,T/C,"dose: 0.2 mg/kg/injection, schedule: Q01DX Z (ip), vehicle: methylcellulose (MC)",179 % of control
same,T/C,"dose: 0.3 mg/kg/injection, schedule: Q01DX Z (ip), vehicle: methylcellulose (MC)",143 and 162 % of control
same,T/C,"dose: 0.3 mg/kg/injection, schedule: Q01DX Z (oral), vehicle: saline",101 % of control
same,T/C,"dose: 0.5 mg/kg/injection, schedule: Q01DX Z (ip), vehicle: methylcellulose (MC)",181 and 200 % of control
same,T/C,"dose: 0.62 mg/kg/injection, schedule: Q#A X034 (ip), vehicle: saline",148 % of control
same,T/C,"dose: 0.76 mg/kg/injection, schedule: Q01DX Z (ip), vehicle: methylcellulose (MC)",182 and 215 % of control
same,T/C,"dose: 0.8 mg/kg/injection, schedule: Q01DX Z (ip), vehicle: methylcellulose (MC)",188 % of control
same,T/C,"dose: 1.0 mg/kg/injection, schedule: Q01DX Z (oral), vehicle: saline",106 % of control
same,T/C,"dose: 1.16 mg/kg/injection, schedule: Q01DX Z (ip), vehicle: methylcellulose (MC)",211 and 229 % of control
same,T/C,"dose: 1.2 mg/kg/injection, schedule: Q01DX Z (ip), vehicle: methylcellulose (MC)",210 % of control
same,T/C,"dose: 1.2 mg/kg/injection, schedule: Q01DX Z (oral), vehicle: saline",116 % of control
same,T/C,"dose: 1.25 mg/kg/injection, schedule: Q01DX017 (ip), vehicle: saline",185 % of control
same,T/C,"dose: 1.25 mg/kg/injection, schedule: Q02DX009 (ip), vehicle: saline",166 % of control
same,T/C,"dose: 1.25 mg/kg/injection, schedule: Q#A X034 (ip), vehicle: saline",211 % of control
same,T/C,"dose: 1.75 mg/kg/injection, schedule: Q01DX Z (ip), vehicle: methylcellulose (MC)",209 and 213 % of control
same,T/C,"dose: 1.8 mg/kg/injection, schedule: Q01DX Z (oral), vehicle: saline",136 % of control
same,T/C,"dose: 2.5 mg/kg/injection, schedule: Q01DX001 (ip), vehicle: saline",146 % of control
same,T/C,"dose: 2.5 mg/kg/injection, schedule: Q01DX017 (ip), vehicle: saline",191 % of control [9 of 10 alive]
same,T/C,"dose: 2.5 mg/kg/injection, schedule: Q02DX009 (ip), vehicle: saline",247 % of control
same,T/C,"dose: 2.5 mg/kg/injection, schedule: Q#A X034 (ip), vehicle: saline",177 % of control
same,T/C,"dose: 2.6 mg/kg/injection, schedule: Q01DX Z (ip), vehicle: methylcellulose (MC)",112 [4 of 6 alive] and 171 % of control
same,T/C,"dose: 2.7 mg/kg/injection, schedule: Q01DX Z (oral), vehicle: saline",178 % of control
same,T/C,"dose: 3.0 mg/kg/injection, schedule: Q01DX Z (oral), vehicle: saline",186 % of control
same,T/C,"dose: 4.0 mg/kg/injection, schedule: Q01DX Z (oral), vehicle: saline",192 % of control
same,T/C,"dose: 5.0 mg/kg/injection, schedule: Q01DX001 (ip), vehicle: saline",160 % of control
same,T/C,"dose: 5.0 mg/kg/injection, schedule: Q01DX017 (ip), vehicle: saline",154 % of control
same,T/C,"dose: 5.0 mg/kg/injection, schedule: Q02DX009 (ip), vehicle: saline",188 % of control
same,survivor count,"dose: 5.0 mg/kg/injection, schedule: Q#A X034 (ip), vehicle: saline",10 of 10
same,T/C,"dose: 6.0 mg/kg/injection, schedule: Q01DX Z (oral), vehicle: saline",188 % of control
same,survivor count,"dose: 7.5 mg/kg/injection, schedule: Q01DX010 (oral), vehicle: saline",6 of 6
same,survivor count,"dose: 8.9 mg/kg/injection, schedule: Q01DX Z (oral), vehicle: saline",6 of 6
same,T/C,"dose: 9.0 mg/kg/injection, schedule: Q01DX Z (oral), vehicle: saline",140 % of control
same,T/C,"dose: 10.0 mg/kg/injection, schedule: Q01DX001 (ip), vehicle: saline",163 % of control
same,T/C,"dose: 10.0 mg/kg/injection, schedule: Q01DX017 (ip), vehicle: saline",108 % of control
same,T/C,"dose: 10.0 mg/kg/injection, schedule: Q02DX009 (ip), vehicle: saline",183 % of control
same,survivor count,"dose: 10.0 mg/kg/injection, schedule: Q#A X034 (ip), vehicle: saline",6 of 10
same,survivor count,"dose: 12.0 mg/kg/injection, schedule: Q01DX Z (oral), vehicle: saline",6 of 6
same,survivor count,"dose: 13.3 mg/kg/injection, schedule: Q01DX Z (oral), vehicle: saline",5 of 6
same,survivor count,"dose: 15.0 mg/kg/injection, schedule: Q01DX010 (oral), vehicle: saline",1 of 6
same,T/C,"dose: 20.0 mg/kg/injection, schedule: Q01DX001 (ip), vehicle: saline",208 % of control
same,survivor count,"dose: 20.0 mg/kg/injection, schedule: Q01DX017 (ip), vehicle: saline",10 of 10
same,T/C,"dose: 20.0 mg/kg/injection, schedule: Q02DX009 (ip), vehicle: saline",100 % of control
same,survivor count,"dose: 30.0 mg/kg/injection, schedule: Q01DX010 (oral), vehicle: saline",2 of 6
same,survivor count,"dose: 30.0 mg/kg/injection, schedule: Q01DX Z (oral), vehicle: saline",3 of 6
same,T/C,"dose: 40.0 mg/kg/injection, schedule: Q01DX001 (ip), vehicle: saline",110 % of control
same,survivor count,"dose: 60.0 mg/kg/injection, schedule: Q01DX010 (oral), vehicle: saline",0 of 6
same,survivor count,"dose: 80.0 mg/kg/injection, schedule: Q01DX001 (ip), vehicle: saline",2 of 4
same,survivor count,"dose: 120.0 mg/kg/injection, schedule: Q01DX010 (oral), vehicle: saline",0 of 6
same,survivor count,"dose: 240.0 mg/kg/injection, schedule: Q01DX010 (oral), vehicle: saline",0 of 6
same,survivor count,"dose: 480.0 mg/kg/injection, schedule: Q01DX010 (oral), vehicle: saline",0 of 6
